# Reference: the supplement of paper PMC11438910
# This is one part of the list. Only a few entries rise above the background.
# B1: 4-173.2 (protein)
# chain 1: QLQLQESGPGLVKPSETLSLTCAVSGGSINSNYWSWIRQPPGKGLDWIGRISGSGGSTDYNPSLKSRVTISTDTSKTQFSLKLRSVTAADTAVYYCGRGSYQIDYWGQGILVTVSS
# chain 2: QAALTQPPSMSGSPGQSVTISCTGTSSDIGGYNRVSWYQQYPGKAPKLMIYEVSKRPSGVSDRFSGSKSGNTASLTISGLQAADEADYYCSSYAGSKALFGGGTRLTVL
# Columns and labels:
# Experiment in all cases: fluorescence intensity of antibody binding to polysaccharide-coupled beads; higher = stronger binding
# [1] = target: pneumococcal polysaccharide Pn33B
# [2] = target: pneumococcal polysaccharide Pn33C
# [3] = target: pneumococcal polysaccharide Pn33D
# [4] = target: pneumococcal polysaccharide Pn33F
# [5] = target: pneumococcal polysaccharide Pn34
# [6] = target: pneumococcal polysaccharide Pn35A
# [7] = target: pneumococcal polysaccharide Pn35B
# [8] = target: pneumococcal polysaccharide Pn35C
# [9] = target: pneumococcal polysaccharide Pn35F
# [10] = target: pneumococcal polysaccharide Pn36
# [11] = target: pneumococcal polysaccharide Pn37
# [12] = target: pneumococcal polysaccharide Pn38
# [13] = antibody concentration 2.8593 ng/mL
# [14] = antibody concentration 15.2894 ng/mL
# [15] = antibody concentration 81.7561 ng/mL
# [16] = antibody concentration 437.17 ng/mL
# [17] = antibody concentration 2337.65 ng/mL
# [18] = antibody concentration 12500 ng/mL
# [19] = antibody concentration 0.1 ng/mL
# [20] = antibody concentration 0.534724 ng/mL
binder,measurement,setting,value
B1,fluorescence intensity,[1]; [13],18 MFI
same,fluorescence intensity,[1]; [14],17.2 MFI
same,fluorescence intensity,[1]; [15],19.2 MFI
same,fluorescence intensity,[1]; [16],17 MFI
same,fluorescence intensity,[1]; [17],20 MFI
same,fluorescence intensity,[1]; [18],29 MFI
same,fluorescence intensity,[2]; [19],19.8 MFI
same,fluorescence intensity,[2]; [20],18.5 MFI
same,fluorescence intensity,[2]; [13],20.5 MFI
same,fluorescence intensity,[2]; [14],19 MFI
same,fluorescence intensity,[2]; [15],18 MFI
same,fluorescence intensity,[2]; [16],20 MFI
same,fluorescence intensity,[2]; [17],25 MFI
same,fluorescence intensity,[2]; [18],69.5 MFI
same,fluorescence intensity,[3]; [19],16 MFI
same,fluorescence intensity,[3]; [20],15.8 MFI
same,fluorescence intensity,[3]; [13],17.2 MFI
same,fluorescence intensity,[3]; [14],15.8 MFI
same,fluorescence intensity,[3]; [15],15.5 MFI
same,fluorescence intensity,[3]; [16],17.2 MFI
same,fluorescence intensity,[3]; [17],18 MFI
same,fluorescence intensity,[3]; [18],32 MFI
same,fluorescence intensity,[4]; [19],13.5 MFI
same,fluorescence intensity,[4]; [20],13.5 MFI
same,fluorescence intensity,[4]; [13],14 MFI
same,fluorescence intensity,[4]; [14],13.5 MFI
same,fluorescence intensity,[4]; [15],15.5 MFI
same,fluorescence intensity,[4]; [16],16.8 MFI
same,fluorescence intensity,[4]; [17],35.5 MFI
same,fluorescence intensity,[4]; [18],295 MFI
same,fluorescence intensity,[5]; [19],14.5 MFI
same,fluorescence intensity,[5]; [20],13.5 MFI
same,fluorescence intensity,[5]; [13],15 MFI
same,fluorescence intensity,[5]; [14],14.2 MFI
same,fluorescence intensity,[5]; [15],13 MFI
same,fluorescence intensity,[5]; [16],14 MFI
same,fluorescence intensity,[5]; [17],15.5 MFI
same,fluorescence intensity,[5]; [18],20 MFI
same,fluorescence intensity,[6]; [19],17 MFI
same,fluorescence intensity,[6]; [20],16 MFI
same,fluorescence intensity,[6]; [13],16 MFI
same,fluorescence intensity,[6]; [14],16.5 MFI
same,fluorescence intensity,[6]; [15],17 MFI
same,fluorescence intensity,[6]; [16],16.5 MFI
same,fluorescence intensity,[6]; [17],25.5 MFI
same,fluorescence intensity,[6]; [18],114 MFI
same,fluorescence intensity,[7]; [19],19 MFI
same,fluorescence intensity,[7]; [20],17.5 MFI
same,fluorescence intensity,[7]; [13],20.5 MFI
same,fluorescence intensity,[7]; [14],18.5 MFI
same,fluorescence intensity,[7]; [15],19 MFI
same,fluorescence intensity,[7]; [16],18.5 MFI
same,fluorescence intensity,[7]; [17],23.2 MFI
same,fluorescence intensity,[7]; [18],76.8 MFI
same,fluorescence intensity,[8]; [19],21 MFI
same,fluorescence intensity,[8]; [20],20 MFI
same,fluorescence intensity,[8]; [13],21 MFI
same,fluorescence intensity,[8]; [14],19.5 MFI
same,fluorescence intensity,[8]; [15],18.5 MFI
same,fluorescence intensity,[8]; [16],19 MFI
same,fluorescence intensity,[8]; [17],22.5 MFI
same,fluorescence intensity,[8]; [18],30 MFI
same,fluorescence intensity,[9]; [19],21 MFI
same,fluorescence intensity,[9]; [20],23.5 MFI
same,fluorescence intensity,[9]; [13],16.8 MFI
same,fluorescence intensity,[9]; [14],20 MFI
same,fluorescence intensity,[9]; [15],19.5 MFI
same,fluorescence intensity,[9]; [16],17.2 MFI
same,fluorescence intensity,[9]; [17],19 MFI
same,fluorescence intensity,[9]; [18],30 MFI
same,fluorescence intensity,[10]; [19],16.5 MFI
same,fluorescence intensity,[10]; [20],15.5 MFI
same,fluorescence intensity,[10]; [13],15.5 MFI
same,fluorescence intensity,[10]; [14],17 MFI
same,fluorescence intensity,[10]; [15],17 MFI
same,fluorescence intensity,[10]; [16],17 MFI
same,fluorescence intensity,[10]; [17],21 MFI
same,fluorescence intensity,[10]; [18],77.2 MFI
same,fluorescence intensity,[11]; [19],25.5 MFI
same,fluorescence intensity,[11]; [20],26.5 MFI
same,fluorescence intensity,[11]; [13],26 MFI
same,fluorescence intensity,[11]; [14],27 MFI
same,fluorescence intensity,[11]; [15],28.5 MFI
same,fluorescence intensity,[11]; [16],32.5 MFI
same,fluorescence intensity,[11]; [17],74.2 MFI
same,fluorescence intensity,[11]; [18],550 MFI
same,fluorescence intensity,[12]; [19],25.2 MFI
same,fluorescence intensity,[12]; [20],27 MFI
same,fluorescence intensity,[12]; [13],26 MFI
same,fluorescence intensity,[12]; [14],25 MFI

# Shown bar-delimited: part of the list above
binder | measurement | setting | value
B1 | fluorescence intensity | [9]; [18] | 30 MFI
same | fluorescence intensity | [10]; [16] | 17 MFI

# Looked up one by one from the list above (two):
binder,measurement,setting,value
B1,fluorescence intensity,[2]; [20],18.5 MFI
same,fluorescence intensity,[3]; [13],17.2 MFI
